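Human melanoma cells were exposed to a pair of drugs for 72 h in 1,536-well plates and read by automated microscopy after fixing and staining. Each value is the count of nuclei relative to DMSO-treated wells, in %, so that 100 equals the control. Every drug was used at one fixed concentration, the lower of two screened (a fifth of the higher). These are primary screening values without error estimates.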
Only some of the drugs and lines screened are listed, without regard to their results.
A dash means that no value is listed here.

Drug key:
cisplatin, 1.6 µM: N.N.[Cl][Pt][Cl]
CHIR-265, 0.08 µM: Cn1c(Nc2ccc(C(F)(F)F)cc2)nc2cc(Oc3ccnc(-c4ncc(C(F)(F)F)[nH]4)c3)ccc21
crizotinib, 0.2 µM: C[C@@H](Oc1cc(-c2cnn(C3CCNCC3)c2)cnc1N)c1c(Cl)ccc(F)c1Cl
PD173074, 0.1 µM: CCN(CC)CCCCNc1ncc2cc(-c3cc(OC)cc(OC)c3)c(NC(=O)NC(C)(C)C)nc2n1
ABT-263, 0.4 µM: CC1(C)CCC(c2ccc(Cl)cc2)=C(CN2CCN(c3ccc(C(=O)NS(=O)(=O)c4ccc(N[C@H](CCN5CCOCC5)CSc5ccccc5)c(S(=O)(=O)C(F)(F)F)c4)cc3)CC2)C1
VX-702, 0.4 µM: NC(=O)c1ccc(N(C(N)=O)c2c(F)cccc2F)nc1-c1ccc(F)cc1F
CX-4945, 0.4 µM: O=C(O)c1ccc2c(c1)nc(Nc1cccc(Cl)c1)c1ccncc12
SU6656, 0.4 µM: CN(C)S(=O)(=O)c1ccc2c(c1)/C(=C/c1cc3c([nH]1)CCCC3)C(=O)N2
BI-78D3, 0.2 µM: O=c1[nH]nc(Sc2ncc([N+](=O)[O-])s2)n1-c1ccc2c(c1)OCCO2
docetaxel, 0.0001 µM: CC(=O)O[C@@]12CO[C@@H]1C[C@H](O)[C@@]1(C)C(=O)[C@H](O)C3=C(C)[C@@H](OC(=O)[C@H](O)[C@@H](NC(=O)OC(C)(C)C)c4ccccc4)C[C@@](O)([C@@H](OC(=O)c4ccccc4)[C@H]21)C3(C)C
OSI-906, 0.4 µM: C[C@]1(O)C[C@@H](c2nc(-c3ccc4ccc(-c5ccccc5)nc4c3)c3c(N)nccn32)C1
temozolomide, 2 µM: Cn1nnc2c(C(N)=O)ncn2c1=O
YM155, 0.0004 µM: COCC[n+]1c2c(n(Cc3cnccn3)c1C)C(=O)c1ccccc1C2=O

Combination | C32 | LB2518-MEL | IST-MEL1 | G-361 | COLO 800 | 501mel
cisplatin and temozolomide | 93.2 | 89.6 | 101 | 81.7 | 233 | -
CHIR-265 and docetaxel | 53.8 | 34.1 | 54.3 | 15.7 | 47.4 | -
OSI-906 and ABT-263 | 46.9 | 79.7 | 86.7 | 72.0 | 33.1 | -
CX-4945 and temozolomide | 109 | 107 | 107 | 78.7 | 76.3 | -
YM155 and cisplatin | 101 | 103 | 98.3 | 95.8 | 121 | -
PD173074 and CX-4945 | 87.9 | 121 | 107 | 94.3 | 92.7 | 101
docetaxel and SU6656 | 72.9 | 56.7 | 54.6 | 27.2 | 29.7 | -
ABT-263 and cisplatin | 65.0 | 86.8 | 71.3 | 70.3 | 55.9 | -
crizotinib and docetaxel | 68.5 | 63.6 | 55.7 | 21.1 | 53.2 | -
BI-78D3 and docetaxel | 94.4 | 74.4 | 54.6 | 31.4 | 45.0 | -
CX-4945 and cisplatin | 95.3 | 102 | 105 | 57.0 | 75.1 | -
crizotinib and CX-4945 | 88.4 | 84.4 | 102 | 83.3 | 120 | -
OSI-906 and docetaxel | 76.0 | 51.0 | 59.9 | 19.5 | 25.4 | -
docetaxel and YM155 | 89.7 | 60.8 | 56.7 | 19.6 | 32.8 | -
OSI-906 and PD173074 | 91.2 | 83.9 | 104 | 92.5 | 133 | 85.1
PD173074 and temozolomide | 93.6 | - | 105 | 107 | 94.6 | -
BI-78D3 and YM155 | 87.8 | 84.7 | 93.1 | 98.3 | 91.8 | -
PD173074 and CHIR-265 | 85.5 | 50.0 | 93.6 | 78.1 | 108 | 56.9
YM155 and OSI-906 | 94.9 | 88.6 | 96.3 | 112 | 81.3 | -
VX-702 and crizotinib | 90.5 | 93.3 | 99.8 | 91.6 | 104 | -
docetaxel and cisplatin | 90.2 | 81.6 | 61.9 | 21.6 | 26.2 | -
ABT-263 and temozolomide | 58.8 | - | 78.4 | 104 | 31.2 | -
SU6656 and OSI-906 | 78.7 | 73.2 | 88.6 | 89.8 | 65.8 | -
VX-702 and OSI-906 | 95.4 | 83.2 | 94.5 | 73.2 | 67.5 | -
ABT-263 and YM155 | 58.4 | 82.7 | 75.6 | 92.2 | 66.3 | -
crizotinib and ABT-263 | 48.1 | 86.7 | 72.2 | 86.7 | 64.9 | -
YM155 and CX-4945 | 91.4 | 102 | 92.4 | 83.4 | 97.1 | -
VX-702 and cisplatin | 124 | 96.3 | 102 | 82.5 | 54.6 | -
BI-78D3 and temozolomide | 102 | 99.2 | 88.5 | 97.6 | 84.9 | -
SU6656 and BI-78D3 | 79.8 | 91.9 | 94.5 | 89.5 | 69.4 | -
BI-78D3 and OSI-906 | 89.4 | 97.6 | 99.1 | 89.0 | 77.7 | -
CHIR-265 and crizotinib | 83.7 | 74.1 | 95.5 | 69.0 | 44.1 | -
VX-702 and CHIR-265 | 86.6 | 72.8 | 102 | 84.6 | 84.6 | -
cisplatin and OSI-906 | 93.4 | 90.0 | 106 | 101 | 76.9 | -
CHIR-265 and ABT-263 | 44.4 | 10.7 | 76.6 | 38.9 | 41.3 | -
YM155 and crizotinib | 102 | - | 91.9 | 94.2 | 106 | -
YM155 and PD173074 | 91.5 | 90.5 | 87.7 | 124 | 95.3 | 101
CHIR-265 and CX-4945 | 77.8 | 61.6 | 105 | 62.9 | 73.0 | -
ABT-263 and BI-78D3 | 50.3 | 81.5 | 79.9 | 77.1 | 62.9 | -

For reference, 5 entries once more:

Combination	C32	LB2518-MEL	IST-MEL1	G-361	COLO 800	501mel
VX-702 and cisplatin	124	96.3	102	82.5	54.6	-
docetaxel and SU6656	72.9	56.7	54.6	27.2	29.7	-
VX-702 and CHIR-265	86.6	72.8	102	84.6	84.6	-
VX-702 and crizotinib	90.5	93.3	99.8	91.6	104	-
OSI-906 and docetaxel	76.0	51.0	59.9	19.5	25.4	-

Source: doi:10.1371/journal.pone.0140310, primary screening data, rounded.